This passage reports AC50 results from PubChem BioAssay AID445 (National Center for Advancing Translational Sciences (NCATS), 2006).

A word on the AC50: it is the concentration at which the activity in the assay is half-maximal.

SMILES strings stand for the structures. The list shows a part of the results. The main result of the screen is listed elsewhere. These columns were measured beside it and carry no call. Most of these compounds were active or inconclusive in the main read-out, so they are no random draw. The note in brackets gives the kind of curve behind each potency; many fits are weak.

A short description of the assay: IkB Signaling. As to conditions: ABC-DLBCL IkBa-CBG/CBR dual luciferase ratio (green luciferase fused to IkBa over red control in OCI-Ly3 lymphoma cells), 4 h. Summed up: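 In this assay, an IκBα–CBG68 fusion accumulates when IKK-driven degradation is blocked; native CBR normalizes for cell number. OCI-Ly3 cells were treated 4 h with compound and doxycycline, then green and red light read after Chroma-Glo addition.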
Setting [1] is: measured here: control luc red channel unless noted.
Where [2] appears, read: measured here: IkB-luc green channel.
[3] abbreviates: measured here: control luc red channel.

`COc1ccc(-c2nsc(NC(=O)c3ccccc3Br)n2)cc1`: the AC50 under setting [1] is 5.01 µM [falling, partial curve].
Still for that read-out and setting: the value for `CCOC(=O)Nc1ccc2c(c1)N(C(=O)CCN1CCOCC1)c1ccccc1S2=O` (centres undefined) was 39.8 µM [falling, single point]; that for `CCCCNC(=O)NS(=O)(=O)c1ccc(NS(=O)(=O)c2ccccc2)cc1` was 0.0794 µM [rising, partial curve, poor fit]; that for `CCOC(=O)c1ccc(NC(=O)CN2C(=O)C(C)(C)c3ccccc32)cc1` was 7.94 µM [rising, single point].
`CCCCCCC(c1c(C)n(C)n(-c2ccccc2)c1=O)c1c(C)n(C)n(-c2ccccc2)c1=O`: the AC50 runs as follows: under setting [2], 20 µM [falling, single point]; under setting [3], 25.1 µM [falling, partial curve].
With `Cc1ccc(C)c(NC(=O)c2cnn(-c3ccc(F)cc3F)c2C2CCNCC2)c1`, the AC50 under setting [1] is 6.31 µM [falling, partial curve].
Same read-out and setting: the value for `O=C(Nc1ccccc1)N1CC=C(c2ccccc2)CC1` was 2 µM [falling, full curve, poor fit]; that for `CCC(c1nnnn1Cc1ccco1)N(CCc1ccccc1)Cc1cc2cccc(C)c2[nH]c1=O` (centres undefined) was 31.6 µM [falling, partial curve].
The same measure, in the same setting: the value for `CCCC12CN3CC(CCC)(CN(C1)C3c1ccc(OCc3ccccc3)cc1)C2=O` (centres undefined) was 39.8 µM [falling, single point]; that for `Fc1ccccc1C(NCCc1ccc(Cl)cc1)c1nnc(-c2ccccc2)o1` (centres undefined) was 20 µM [falling, partial curve].
Still for that read-out and setting: the value for `Cc1ccc(-c2nc(-c3cccnc3)no2)cc1` was 20 µM [falling, single point]; that for `COc1ccccc1NC(=O)CN(C)S(=O)(=O)c1cccc2cccnc12` was 1.26 µM [rising, partial curve]; that for `Cc1ccc(Nc2ccc(N3CCN(C(=O)c4cccc([N+](=O)[O-])c4)CC3)nn2)cc1` was 20 µM [falling, single point].
As for `CCN(C(=O)c1sc2nc3n(c(=O)c2c1C)CCCC3)c1ccccc1F`, under setting [1], the AC50 is 3.98 µM [rising, partial curve].
Same read-out and setting: in the case of `Cc1cccc(OCC(=O)Nc2ccc(S(=O)(=O)N3CCCC3)cc2)c1` it was 15.8 µM [falling, partial curve]; in that of `CN(C)c1ccc(C(CNC(=O)c2ccc(C(C)(C)C)cc2)N2CCCC2)cc1` (centres undefined), 20 µM [falling, partial curve]; in that of `Cc1cn2c(=O)cc(COc3ccc(NC(=O)c4ccc(C(C)(C)C)cc4)cc3)nc2s1`, 3.16 µM [rising, full curve].
Take `COc1ccc(-n2nc(C(=O)NCCc3ccc(Cl)cc3)c3c4ccccc4n(C)c3c2=O)cc1`: under setting [1], the AC50 is 1 µM [falling, full curve].
The same measure, in the same setting: in the case of `COc1ccc(C2c3c(-c4ccccc4)n[nH]c3C(=O)N2c2ccc(C(=O)O)cc2)c(OC)c1` (centres undefined) it was 15.8 µM [falling, partial curve]; in that of `Cc1ccc(-c2cnc(C3CC3)o2)cc1S(=O)(=O)Nc1cccc(C#N)c1`, 39.8 µM [falling, single point]; in that of `OCCN(CCO)c1nc(N2CCCCC2)c2nc(N(CCO)CCO)nc(N3CCCCC3)c2n1`, 39.8 µM [falling, single point].
Consider `CN(Cc1ccccc1)C(=O)CSc1c2c(nc3ccc(Cl)cc13)CCCC2`, for which the AC50 under setting [1] was 7.94 µM [falling, partial curve].
For the compound `Cc1ccc(-c2c(CN3CCN(c4cccc(C)c4C)CC3)csc2C)cc1`, under setting [1], the AC50 is 20 µM [falling, single point].
Same read-out and setting: the value for `CCC(C)(C)n1nnnc1CN(Cc1ccc(Cl)cc1)Cc1ccco1` was 15.8 µM [falling, partial curve]; that for `Cc1ccccc1NC(=O)Cn1c(=O)n(CCC(=O)N2CCc3ccccc3C2)c(=O)c2ccccc21` was 25.1 µM [falling, partial curve].
`COc1ccc(NS(=O)(=O)c2cc(-c3onc(C)c3C)ccc2C)c(OC)c1`: under setting [1], the AC50 was 25.1 µM [falling, partial curve].
For `CCC1CN(C(=O)N2CCC(C(=O)NCCCc3ccccc3)CC2)c2cc(C)ccc2O1` (centres undefined), the AC50 under setting [1] is 5.01 µM [falling, partial curve].
The same measure, in the same setting: in the case of `CCn1c(SCC(=O)Nc2nc3ccc(OC)cc3s2)nc2c1c(=O)n(C)c(=O)n2C` it was 12.6 µM [falling, partial curve].
In the case of `COc1ccc(NC(=O)CCS(=O)(=O)c2cc3c(cc2C)NC(=O)CO3)cc1Cl`, the AC50 under setting [1] is 7.94 µM [falling, partial curve].
The same measure, in the same setting: in the case of `CCCc1cnc2c(c1SCC(=O)Nc1ccc([N+](=O)[O-])cc1)c(=O)n(C)c(=O)n2C` it was 2 µM [falling, full curve]; in that of `Cc1ccc(C2CC(=O)n3nc(-c4ccc(F)cc4)nc3S2)cc1` (centres undefined), 20 µM [falling, partial curve, poor fit]; in that of `CCCC(C(=O)NCc1ccco1)N(C(=O)CNS(=O)(=O)c1ccc(Cl)cc1)C1CCCC1` (centres undefined), 3.98 µM [falling, full curve].
Still for that read-out and setting: in the case of `CCOC(=O)c1ccccc1NC(=O)N(Cc1ccc(CC)cc1)Cc1cn[nH]c1-c1ccc(OC)cc1` it was 20 µM [falling, partial curve]; in that of `COc1cccc(C(=O)N(Cc2ccco2)Cc2cc3cccc(C)c3[nH]c2=O)c1`, 7.94 µM [falling, partial curve].
Still for that read-out and setting: in the case of `CCc1ccccc1NC(=O)C1(S(=O)(=O)c2ccc(Cl)cc2)CC1` it was 1.26 µM [rising, partial curve]; in that of `Cc1ccc(OCC(=O)Nc2ccc(Cl)c(-c3nc4ncccc4o3)c2)cc1C`, 25.1 µM [falling, partial curve]; in that of `O=c1oc2ccccc2c(O)c1/C=N/c1ccccn1`, 3.16 µM [falling, full curve].
In the case of `Cn1nnnc1SCCCNCc1ccc(-c2ccc(Br)cc2)o1`, the AC50 under setting [1] is 15.8 µM [falling, single point].
Still for that read-out and setting: the value for `CCCCCn1c(=O)[nH]c2cc(C(=O)Nc3cc(OC)cc(OC)c3)ccc2c1=O` was 2 µM [falling, full curve]; that for `Cc1ccc2oc(=O)c3cc(C(=O)N4CCN(c5ccccc5)CC4)sc3c2c1` was 10 µM [rising, partial curve]; that for `O=C(CSc1nnnn1C1CCCCC1)Nc1cccc(NC(=O)c2ccco2)c1` was 3.16 µM [falling, partial curve].
Consider `CCC1CN(C(=O)NCc2ccc(C)cc2)c2cc(C)ccc2O1` (centres undefined), for which, under setting [1], the AC50 is 7.94 µM [falling, partial curve].
Same read-out and setting: in the case of `COC(=O)c1ccc(OCC2c3cc(OC)c(OC)cc3CCN2C(=O)C2CC2)cc1` (centres undefined) it was 15.8 µM [falling, partial curve]; in that of `COc1cc2nc(SCc3ccc(Cl)cc3)n3nc(CCn4nc(C)cc4C)nc3c2cc1OC`, 1.26 µM [rising, full curve].
The same measure, in the same setting: the value for `COc1cc(C(=O)NCCc2ccc3c(c2)OCCO3)ccc1OCC(=O)N1CCOCC1` was 3.98 µM [falling, full curve, poor fit]; that for `COc1cc(C(=O)Nc2nnc(S(=O)(=O)N(C)c3ccccc3)s2)cc(OC)c1OC` was 2.51 µM [rising, partial curve].
On the same count and under the same terms, the value for `O=[N+]([O-])c1ccc2cn[nH]c2c1` was 3.16 µM [rising, full curve]; that for `Cc1ccc(-c2nc3n(n2)C(c2ccccc2C)C=C(c2ccc(Cl)cc2)N3)cc1` (centres undefined) was 12.6 µM [falling, partial curve]; that for `COc1cc(C(=O)NCC(c2ccc(N(C)C)cc2)N2CCc3ccccc32)cc(OC)c1OC` (centres undefined) was 15.8 µM [falling, partial curve].
Turning to `COc1cc(OC)cc(-c2nc3nc(C)c(CCC(=O)O)c(C)n3n2)c1`, the AC50 under setting [1] is 7.94 µM [falling, full curve, poor fit].
Turning to `COc1cccc(Nc2ncc3ncc(=O)n(C[C@H]4CCCO4)c3n2)c1`, the AC50 was 3.98 µM [falling, partial curve] under setting [2] and 3.98 µM [falling, partial curve] under setting [3].
With `COc1ccc(CNC(=O)c2cc3c(=O)[nH]c4ccc(C)cc4c3s2)c(OC)c1`, the AC50 under setting [1] was 0.126 µM [falling, full curve, poor fit].
`Cc1ccn2c(Nc3ccc(F)cc3)c(-c3ccc(C)o3)nc2c1`: the AC50 under setting [1] is 20 µM [falling, partial curve].
`O=C(CSc1ncc(CO)n1Cc1ccccc1)Nc1nc2ccccc2s1`: the AC50 under setting [1] is 20 µM [falling, single point].
Consider `Oc1ccccc1-c1nnc(COc2ccc(Cl)cc2Cl)o1`, for which the half-maximal activity concentration (AC50) under setting [1] was 12.6 µM [falling, partial curve].
The same measure, in the same setting: the value for `COc1cc(CN(C(=O)COc2ccc(Br)cc2)c2ccccn2)cc(OC)c1OC` was 15.8 µM [falling, single point]; that for `O=C(Nc1ccc(-c2cc(C(F)(F)F)nn2-c2ccccc2)cc1)c1cccc(F)c1` was 10 µM [falling, partial curve]; that for `CCOC(=O)c1c(NC(=O)c2cc(CC)on2)sc(C)c1C` was 1 µM [rising, full curve].
On the same count and under the same terms, in the case of `O=c1cc(CSc2ncn[nH]2)[nH]c2c(Cl)cccc12` it was 0.398 µM [falling, partial curve]; in that of `COc1ccc(OC)c(Nc2nc(-c3ccc(C)cc3)nc3ccccc23)c1`, 0.794 µM [falling, full curve, poor fit].
On the same count and under the same terms, in the case of `O=C(CC1N=C2c3ccccc3N=C(SCc3ccc(Cl)cc3)N2C1=O)NCCc1ccccc1` (centres undefined) it was 39.8 µM [falling, single point]; in that of `CCOc1ccc(C2c3c(-c4ccc(C)cc4)n[nH]c3C(=O)N2c2ccc(Cl)cc2)cc1` (centres undefined), 39.8 µM [falling, single point].
